PubChem BioAssay AID686943 | Drosophila RNAi Screening Center, 2013

Screen: 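Knockdowns that increase or decrease active ERK after insulin receptor stimulation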 (primary screen)
Cells: Drosophila S2R+ haemocyte-like cells expressing YFP-tagged ERK (Rolled)
Knock-down reagent: long dsRNA against Drosophila genes
Conditions: insulin stimulation versus unstimulated cells; dose and duration not given
Measured: 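Per-plate z-scores of phospho-ERK immunostaining normalised to YFP-tagged ERK, measured with and without insulin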
Scale: replicate 1, z-score of dpERK with insulin: higher = more active ERK per ERK-YFP after insulin
In all, the deposit lists about 23,000 reagents; below is an unselected part of those that have a named target and a result. 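Extra replicates exist only for a retested subset of genes; insulin dose and duration not given; both raised and lowered dpERK matter.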 Reagents against one gene are numbered here. Further read-outs or replicates are left out here. Reagent sequences are not shown. The record does not give: the amount of reagent, the time to read-out.

CrebB (Cyclic-AMP response element binding protein B) — replicate 1, z-score of dpERK with insulin = -0.88
Grip163 — replicate 1, z-score of dpERK with insulin = 0.29
Pros28.2 (retired record) — replicate 1, z-score of dpERK with insulin = -0.58
CG33342 (HDC15381) — replicate 1, z-score of dpERK with insulin = 0.98
ave (aveugle) — replicate 1, z-score of dpERK with insulin = -4.71
ergic53 — replicate 1, z-score of dpERK with insulin = 0.58
CG13998 — replicate 1, z-score of dpERK with insulin = -0.04
RpS13 (Ribosomal protein S13) — replicate 1, z-score of dpERK with insulin = -1.8
CG13609 #1 — replicate 1, z-score of dpERK with insulin = 1.54
CG13609 #2 — replicate 1, z-score of dpERK with insulin = 1.03
CG11629 — replicate 1, z-score of dpERK with insulin = 0.38
CG43187 — replicate 1, z-score of dpERK with insulin = 0.76
CG5793 — replicate 1, z-score of dpERK with insulin = 1.01
Alg7 #1 — replicate 1, z-score of dpERK with insulin = -0.43
Alg7 #2 — replicate 1, z-score of dpERK with insulin = -0.37
CngA (Cyclic nucleotide-gated ion channel subunit A) #1 — replicate 1, z-score of dpERK with insulin = -1.11
CngA (Cyclic nucleotide-gated ion channel subunit A) #2 — replicate 1, z-score of dpERK with insulin = 0.15
CG16739 — replicate 1, z-score of dpERK with insulin = -1
PolH (DNA polymerase eta) — replicate 1, z-score of dpERK with insulin = -0.07
CG11975 — replicate 1, z-score of dpERK with insulin = 0.14
CG4036 — replicate 1, z-score of dpERK with insulin = 0.1
